This note sets out measurements from PMC7461561.

Sequences of proteins named here, by UniProt entry; tags and fusion partners are left off.
UniProt O60260: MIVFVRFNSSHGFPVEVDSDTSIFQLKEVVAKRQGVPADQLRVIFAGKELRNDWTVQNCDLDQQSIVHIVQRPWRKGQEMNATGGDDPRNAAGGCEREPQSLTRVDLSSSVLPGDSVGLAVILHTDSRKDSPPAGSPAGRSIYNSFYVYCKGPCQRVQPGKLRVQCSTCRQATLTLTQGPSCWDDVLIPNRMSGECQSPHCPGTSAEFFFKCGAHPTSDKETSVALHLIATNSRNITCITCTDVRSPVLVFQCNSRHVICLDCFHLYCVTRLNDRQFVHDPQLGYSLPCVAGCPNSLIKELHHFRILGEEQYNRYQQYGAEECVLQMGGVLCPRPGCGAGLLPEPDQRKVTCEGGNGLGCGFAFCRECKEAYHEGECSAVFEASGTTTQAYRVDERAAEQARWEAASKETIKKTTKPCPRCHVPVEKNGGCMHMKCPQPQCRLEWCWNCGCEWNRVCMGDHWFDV

Results are given in words; binding and its absence hold for the method and conditions named. In cells and extracts the contact can be indirect. Here binding means that the protein was enriched with, or labelled near, the bait; the list need not be complete.

This experiment has as its target Parkin (human (endogenous in platelets)) (UniProt O60260). Briefly: affinity purification with mass spectrometry; IP with Parkin-specific antibodies from human DM platelet lysate; silver-stained gel, 10 bands enriched in DM against HC cut out; in-gel trypsin digestion, LC-MS/MS, Mascot search.

B1: Protein disulfide-isomerase A5 (protein, UniProt Q14554 22-519)
chain: SSAKVSSLIERISDPKDLKKLLRTRNNVLVLYSKSEVAAENHLRLLSTVAQAVKGQGTICWVDCGDAESRKLCKKMKVDLSPKDKKVELFHYQDGAFHTEYNRAVTFKSIVAFLKDPKGPPLWEEDPGAKDVVHLDSEKDFRRLLKKEEKPLLIMFYAPWCSMCKRMMPHFQKAATQLRGHAVLAGMNVYSSEFENIKEEYSVRGFPTICYFEKGRFLFQYDNYGSTAEDIVEWLKNPQPPQPQVPETPWADEGGSVYHLTDEDFDQFVKEHSSVLVMFHAPWCGHCKKMKPEFEKAAEALHGEADSSGVLAAVDATVNKALAERFHISEFPTLKYFKNGEKYAVPVLRTKKKFLEWMQNPEAPPPPEPTWEEQQTSVLHLVGDNFRETLKKKKHTLVMFYAPWCPHCKKVIPHFTATADAFKDDRKIACAAVDCVKDKNQDLCQQEAVKGYPTFHYYHYGKFAEKYDSDRTELGFTNYIRALREGDHERLGKKKEEL
Take B1: the binding result is “binds”.

B2: Protein S100-A8 (protein, UniProt P05109 1-93)
chain: MLTELEKALNSIIDVYHKYSLIKGNFHAVYRDDLKKLLETECPQYIRKKGADVWFKELDINTDGAVNFQEFLILVIKMGVAAHKKSHEESHKE
On to B2, for which the binding entry is listed as “binds”.

B3: 14-3-3 protein theta (protein, UniProt P27348 1-245)
chain: MEKTELIQKAKLAEQAERYDDMATCMKAVTEQGAELSNEERNLLSVAYKNVVGGRRSAWRVISSIEQKTDTSDKKLQLIKDYREKVESELRSICTTVLELLDKYLIANATNPESKVFYLKMKGDYFRYLAEVACGDDRKQTIDNSQGAYQEAFDISKKEMQPTHPIRLGLALNFSVFYYEILNNPELACTLAKTAFDEAIAELDTLNEDSYKDSTLIMQLLRDNLTLWTSDSAGEECDAAEGAEN
Regarding B3, the binding result is on record as “binds”.

B4: Glutaredoxin domain-containing cysteine-rich protein 2 (protein, UniProt A6NFK2 1-248)
chain: MEDPEKKLNQKSDGKPRKVRFKISSSYSGRVLKQVFEDGQELESPKEEYPHSFLQESLETMDGVYGSGEVPRPQMCSPKLTAQRISVFREGNAYTLAGGQPRFNDYKANDHKPLPIIDFGKIIIYTNNLKIIRTPMDKRDFVRKILQKEEEAEEESLMNKEESYGGRDQHDRPLVEAESTLPQNRYTQEGDIPEDSCFHCRGSGSATCSLCHGSKFSMLANRFKESYRALRCPACNENGLQPCQICNQ
As to B4, the binding result is “binds”.

B5: Mitochondrial import inner membrane translocase subunit TIM16 (protein, UniProt Q9Y3D7 1-125)
chain: MAKYLAQIIVMGVQVVGRAFARALRQEFAASRAAADARGRAGHRSAAASNLSGLSLQEAQQILNVSKLSPEEVQKNYEHLFKVNDKSVGGSFYLQSKVVRAKERLDEELKIQAQEDREKGQMPHT
On to B5, for which the binding entry is on record as “binds”.

B6: (E3-independent) E2 ubiquitin-conjugating enzyme (protein, UniProt Q9C0C9 1-1292)
chain: MADPAAPTPAAPAPAQAPAPAPEAVPAPAAAPVPAPAPASDSASGPSSDSGPEAGSQRLLFSHDLVSGRYRGSVHFGLVRLIHGEDSDSEGEEEGRGSSGCSEAGGAGHEEGRASPLRRGYVRVQWYPEGVKQHVKETKLKLEDRSVVPRDVVRHMRSTDSQCGTVIDVNIDCAVKLIGTNCIIYPVNSKDLQHIWPFMYGDYIAYDCWLGKVYDLKNQIILKLSNGARCSMNTEDGAKLYDVCPHVSDSGLFFDDSYGFYPGQVLIGPAKIFSSVQWLSGVKPVLSTKSKFRVVVEEVQVVELKVTWITKSFCPGGTDSVSPPPSVITQENLGRVKRLGCFDHAQRQLGERCLYVFPAKVEPAKIAWECPEKNCAQGEGSMAKKVKRLLKKQVVRIMSCSPDTQCSRDHSMEDPDKKGESKTKSEAESASPEETPDGSASPVEMQDEGAEEPHEAGEQLPPFLLKEGRDDRLHSAEQDADDEAADDTDDTSSVTSSASSTTSSQSGSGTSRKKSIPLSIKNLKRKHKRKKNKITRDFKPGDRVAVEVVTTMTSADVMWQDGSVECNIRSNDLFPVHHLDNNEFCPGDFVVDKRVQSCPDPAVYGVVQSGDHIGRTCMVKWFKLRPSGDDVELIGEEEDVSVYDIADHPDFRFRTTDIVIRIGNTEDGAPHKEDEPSVGQVARVDVSSKVEVVWADNSKTIILPQHLYNIESEIEESDYDSVEGSTSGASSDEWEDDSDSWETDNGLVEDEHPKIEEPPIPPLEQPVAPEDKGVVISEEAATAAVQGAVAMAAPMAGLMEKAGKDGPPKSFRELKEAIKILESLKNMTVEQLLTGSPTSPTVEPEKPTREKKFLDDIKKLQENLKKTLDNVAIVEEEKMEAVPDVERKEDKPEGQSPVKAEWPSETPVLCQQCGGKPGVTFTSAKGEVFSVLEFAPSNHSFKKIEFQPPEAKKFFSTVRKEMALLATSLPEGIMVKTFEDRMDLFSALIKGPTRTPYEDGLYLFDIQLPNIYPAVPPHFCYLSQCSGRLNPNLYDNGKVCVSLLGTWIGKGTERWTSKSSLLQVLISIQGLILVNEPYYNEAGFDSDRGLQEGYENSRCYNEMALIRVVQSMTQLVRRPPEVFEQEIRQHFSTGGWRLVNRIESWLETHALLEKAQALPNGVPKASSSPEPPAVAELSDSGQQEPEDGGPAPGEASQGSDSEGGAQGLASASRDHTDQTSETAPDASVPPSVKPKKRRKSYRSFLPEKSGYPDIGFPLFPLSKGFIKSIRGVLTQFRAALLEAGMPECTEDK
With B6, the binding result is on record as “binds”.

B7: Ubiquitin carboxyl-terminal hydrolase 8 (protein, UniProt P40818 1-1118)
chain: MPAVASVPKELYLSSSLKDLNKKTEVKPEKISTKSYVHSALKIFKTAEECRLDRDEERAYVLYMKYVTVYNLIKKRPDFKQQQDYFHSILGPGNIKKAVEEAERLSESLKLRYEEAEVRKKLEEKDRQEEAQRLQQKRQETGREDGGTLAKGSLENVLDSKDKTQKSNGEKNEKCETKEKGAITAKELYTMMTDKNISLIIMDARRMQDYQDSCILHSLSVPEEAISPGVTASWIEAHLPDDSKDTWKKRGNVEYVVLLDWFSSAKDLQIGTTLRSLKDALFKWESKTVLRNEPLVLEGGYENWLLCYPQYTTNAKVTPPPRRQNEEVSISLDFTYPSLEESIPSKPAAQTPPASIEVDENIELISGQNERMGPLNISTPVEPVAASKSDVSPIIQPVPSIKNVPQIDRTKKPAVKLPEEHRIKSESTNHEQQSPQSGKVIPDRSTKPVVFSPTLMLTDEEKARIHAETALLMEKNKQEKELRERQQEEQKEKLRKEEQEQKAKKKQEAEENEITEKQQKAKEEMEKKESEQAKKEDKETSAKRGKEITGVKRQSKSEHETSDAKKSVEDRGKRCPTPEIQKKSTGDVPHTSVTGDSGSGKPFKIKGQPESGILRTGTFREDTDDTERNKAQREPLTRARSEEMGRIVPGLPSGWAKFLDPITGTFRYYHSPTNTVHMYPPEMAPSSAPPSTPPTHKAKPQIPAERDREPSKLKRSYSSPDITQAIQEEEKRKPTVTPTVNRENKPTCYPKAEISRLSASQIRNLNPVFGGSGPALTGLRNLGNTCYMNSILQCLCNAPHLADYFNRNCYQDDINRSNLLGHKGEVAEEFGIIMKALWTGQYRYISPKDFKITIGKINDQFAGYSQQDSQELLLFLMDGLHEDLNKADNRKRYKEENNDHLDDFKAAEHAWQKHKQLNESIIVALFQGQFKSTVQCLTCHKKSRTFEAFMYLSLPLASTSKCTLQDCLRLFSKEEKLTDNNRFYCSHCRARRDSLKKIEIWKLPPVLLVHLKRFSYDGRWKQKLQTSVDFPLENLDLSQYVIGPKNNLKKYNLFSVSNHYGGLDGGHYTAYCKNAARQRWFKFDDHEVSDISVSSVKSSAAYILFYTSLGPRVTDVAT
With B7, the binding result is “binds”.

B8: Thioredoxin domain-containing protein 9 (protein, UniProt O14530 1-226)
chain: MEADASVDMFSKVLEHQLLQTTKLVEEHLDSEIQKLDQMDEDELERLKEKRLQALRKAQQQKQEWLSKGHGEYREIPSERDFFQEVKESENVVCHFYRDSTFRCKILDRHLAILSKKHLETKFLKLNVEKAPFLCERLHIKVIPTLALLKDGKTQDYVVGFTDLGNTDDFTTETLEWRLGSSDILNYSGNLMEPPFQNQKKFGTNFTKLEKKTIRGKKYDSDSDDD
Take B8: the binding entry is reported as “binds”.

B9: Peroxiredoxin-6 (protein, UniProt P30041 1-224)
chain: MPGGLLLGDVAPNFEANTTVGRIRFHDFLGDSWGILFSHPRDFTPVCTTELGRAAKLAPEFAKRNVKLIALSIDSVEDHLAWSKDINAYNCEEPTEKLPFPIIDDRNRELAILLGMLDPAEKDEKGMPVTARVVFVFGPDKKLKLSILYPATTGRNFDEILRVVISLQLTAEKRVATPVDWKDGDSVMVLPTIPEEEAKKLFPKGVFTKELPSGKKYLRYTPQP
Consider B9, for which the binding entry is listed as “binds”.
